{"source": "paper PMC8466066", "about": "“Searching for Biological Function of the Mysterious PA2504 Protein from Pseudomonas aeruginosa” (International Journal of Molecular Sciences, 2021)", "key": {"[1]": {"target": "T1, His6-tagged PA2504 expressed in P. aeruginosa ΔPA2504 (plasmid pKGB2504) (Pseudomonas aeruginosa) (UniProt Q9I0X8)", "T1 sequence": "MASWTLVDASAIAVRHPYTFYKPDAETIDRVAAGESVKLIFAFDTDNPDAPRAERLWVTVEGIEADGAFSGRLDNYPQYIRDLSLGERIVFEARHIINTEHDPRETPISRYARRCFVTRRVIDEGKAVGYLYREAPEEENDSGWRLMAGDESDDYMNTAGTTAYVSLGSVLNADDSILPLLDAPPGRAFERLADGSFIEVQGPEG", "assay": "cross-linking + affinity purification with mass spectrometry; stationary phase culture; in vivo cross-linking with 0.4% formaldehyde for 10 min, His6-PA2504 isolated on Ni-NTA, cross-links reversed at 100 °C, SDS-PAGE, bands cut out and identified by mass spectrometry"}, "[2]": {"target": "T1, His6-tagged PA2504 expressed in P. aeruginosa ΔPA2504 (plasmid pKGB2504) (Pseudomonas aeruginosa)", "assay": "cross-linking + affinity purification with mass spectrometry; exponential phase culture; in vivo cross-linking with 0.4% formaldehyde for 10 min, His6-PA2504 isolated on Ni-NTA, cross-links reversed at 100 °C, SDS-PAGE; compared with the stationary phase"}}, "note": "These are yes or no findings as the source states them, for the method shown. In cells and extracts the contact can be indirect. A yes stands for co-enrichment or nearness to the bait. Other partners may have been found. For some assays here: A no says only that the protein was not detected with the bait. Tags and fused reporters may be left off the sequences shown.", "data": [{"binder": "GacA global response regulator (PA2586) (protein, UniProt Q51373 1-214) MIKVLVVDDHDLVRTGITRMLADIEGLQVVGQADCGEDCLKLARELKPDVVLMDVKMPGIGGLEATRKLLRSQPDIKVVVVTVCEEDPFPTRLMQAGAAGYMTKGAGLEEMVQAIRQVFAGQRYISPQIAQQLALKSFQPQQHDSPFDSLSEREIQIALMIANCHKVQSISDKLCLSPKTVNTYRYRIFEKLSITSDVELALLAVRHGMVDAAS", "values": [{"measurement": "binding", "setting": "[1]", "value": "binds"}, {"measurement": "binding", "setting": "[2]", "value": "no binding (only exponential phase of growth)"}]}]}
